Data as given in PubChem BioAssay AID504774 (Drosophila RNAi Screening Center, 2011)
The screen tested about 23,000 reagents; shown is an unselected part of those with a known target gene and a result. 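Values are quantile-normalised luminescence on an arbitrary scale; higher means more cells surviving MMS.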 Reagents against one gene are numbered here. A plus sign joins genes that one reagent is predicted to hit.

Assay: 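Fly genes whose loss alters survival after alkylation damage to DNA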 (primary screen)
Cell system: Drosophila Kc167 cells
Reagents: long dsRNA against Drosophila genes, about 0.25 µg dsRNA per well
Timing: about 6 days: 3 days knock-down, then 3 days with or without MMS
Challenge: methyl methanesulphonate 0.004% (w/v) for 3 days after knock-down
Measurement: 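ATP-dependent luminescence as a measure of live cells in MMS-exposed wells, quantile normalised within each plate, with replicate values also given as a mean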
Direction: mean viability with MMS and viability with MMS: higher = more surviving cells after MMS

target gene | reagent no. | mean viability with MMS | viability with MMS, replicate 1 | viability with MMS, replicate 2
Socs36E (Suppressor of cytokine signaling at 36E) | 1 | 3.61e6 | 4.11e6 | 4.12e6
Psi (P-element somatic inhibitor) | 1 | 3.57e6 | 4.03e6 | 4.07e6
CROT (Carnitine O-octanoyltransferase) | 1 | 3.52e6 | 4.00e6 | 4.00e6
CROT (Carnitine O-octanoyltransferase) | 2 | 3.55e6 | 4.04e6 | 4.00e6
wa-cup (walker cup) | 1 | 3.45e6 | 3.87e6 | 3.99e6
Cht12 (Chitinase 12) | 1 | 3.39e6 | 3.89e6 | 3.83e6
Cp110 (Centriolar coiled coil protein 110kDa) | 1 | 3.59e6 | 4.13e6 | 4.02e6
Cp110 (Centriolar coiled coil protein 110kDa) | 2 | 3.40e6 | 3.81e6 | 3.97e6
CG32204 | 1 | 3.44e6 | 4.04e6 | 3.80e6
EMC2B + EMC2A | 1 | 3.93e6 | 4.24e6 | 4.62e6
CG7246 | 1 | 1.66e6 | 3.85e6 | –
fd96Cb (forkhead domain 96Cb) | 1 | 3.53e6 | 3.94e6 | 4.04e6
CG32277 | 1 | 3.51e6 | 3.92e6 | 4.04e6
cpo (couch potato) | 1 | 3.67e6 | 4.13e6 | 4.14e6
CG14333 (retired record) | 1 | 3.54e6 | 3.95e6 | 4.08e6
CG14333 (retired record) | 2 | 3.83e6 | 4.42e6 | 4.13e6
ppk26 (pickpocket 26) | 1 | 3.59e6 | 4.17e6 | 3.99e6
CG3817 | 1 | 3.53e6 | 4.03e6 | 3.98e6
CG30148 | 1 | 1.93e6 | 4.11e6 | –
tyf (twenty-four) | 1 | 3.49e6 | 3.96e6 | 3.97e6
CG13560 | 1 | 3.66e6 | 4.34e6 | 3.96e6
CG12851 | 1 | 3.44e6 | 3.81e6 | 3.97e6
CG13376 | 1 | 3.58e6 | 4.02e6 | 4.09e6
Gyc89Db (Guanylyl cyclase at 89Db) | 1 | 3.70e6 | 4.17e6 | 4.17e6
Rcd4 (Reduction in Cnn dots 4) | 1 | 3.60e6 | 3.98e6 | 4.18e6
Nulp1 (Nuclear localized protein 1) | 1 | 3.73e6 | 4.28e6 | 4.19e6
spidey | 1 | 3.48e6 | 3.82e6 | 4.08e6
qvr (quiver) | 1 | 3.55e6 | 3.99e6 | 4.05e6
Acp63F (Accessory gland protein 63F) | 1 | 3.60e6 | 4.09e6 | 4.04e6
RpL27 (Ribosomal protein L27) | 1 | 2.95e6 | 3.60e6 | 3.61e6
Dtwd2 (DTW domain containing 2) | 1 | 3.43e6 | 3.89e6 | 3.91e6
Sar1 (Secretion-associated Ras-related 1) | 1 | 3.54e6 | 3.98e6 | 4.05e6
Sar1 (Secretion-associated Ras-related 1) | 2 | 3.52e6 | 4.00e6 | 4.00e6
CG18130 | 1 | 3.43e6 | 3.91e6 | 3.88e6

Next part; the last 3 above are carried over.
target gene | reagent no. | mean viability with MMS | viability with MMS, replicate 1 | viability with MMS, replicate 2
Sar1 (Secretion-associated Ras-related 1) | 1 | 3.54e6 | 3.98e6 | 4.05e6
Sar1 (Secretion-associated Ras-related 1) | 2 | 3.52e6 | 4.00e6 | 4.00e6
CG18130 | 1 | 3.43e6 | 3.91e6 | 3.88e6
CG15020 | 1 | 3.55e6 | 4.01e6 | 4.06e6
Lnk | 1 | 3.60e6 | 4.12e6 | 4.03e6
swm (second mitotic wave missing) | 1 | 3.62e6 | 3.98e6 | 4.26e6
swm (second mitotic wave missing) | 2 | 2.47e6 | 3.58e6 | 3.58e6
phtm (phantom) | 1 | 3.45e6 | 3.97e6 | 3.85e6
Pgant6 (Polypeptide N-Acetylgalactosaminyltransferase 6) | 1 | 3.35e6 | 3.84e6 | 3.77e6
CG1889 + CG43386 | 1 | 3.89e6 | 4.38e6 | 4.38e6
CG4572 | 1 | 3.45e6 | 3.89e6 | 3.94e6
Ir7g (Ionotropic receptor 7g) | 1 | 3.53e6 | 3.96e6 | 4.07e6
CG2983 | 1 | 3.38e6 | 3.76e6 | 3.83e6
Peritrophin-15a | 1 | 3.59e6 | 4.15e6 | 3.99e6
sel (seele) | 1 | 3.68e6 | 4.25e6 | 4.10e6
Tpst (Tyrosylprotein sulfotransferase) | 1 | 3.44e6 | 3.90e6 | 3.93e6
Tpst (Tyrosylprotein sulfotransferase) | 2 | 3.55e6 | 4.05e6 | 4.00e6
Tpst (Tyrosylprotein sulfotransferase) | 3 | 3.66e6 | 4.13e6 | 4.14e6
Tpst (Tyrosylprotein sulfotransferase) | 4 | 2.89e6 | 3.62e6 | 3.62e6
Tpst (Tyrosylprotein sulfotransferase) | 5 | 2.77e6 | 3.66e6 | 3.65e6
CG31898 | 1 | 3.59e6 | 4.16e6 | 3.96e6
CG31019 | 1 | 3.41e6 | 3.95e6 | 3.81e6
sub (subito) | 1 | 3.50e6 | 3.94e6 | 3.98e6
Prx1 (Peroxiredoxin 1) | 1 | 3.51e6 | 4.01e6 | 3.93e6
CG9951 | 1 | 3.65e6 | 4.19e6 | 4.06e6
CG31093 | 1 | 3.54e6 | 3.94e6 | 4.08e6
CG34408 | 1 | 3.43e6 | 4.35e6 | 3.92e6
CG34408 | 2 | 2.99e6 | 3.79e6 | 3.79e6
CG34408 | 3 | 3.49e6 | 4.05e6 | 3.91e6
Boh2 (Buddy of Hmr 2) | 1 | 3.57e6 | 3.96e6 | 4.15e6
phyl (phyllopod) | 1 | 3.50e6 | 3.92e6 | 4.02e6
RpL36 (Ribosomal protein L36) | 1 | 2.97e6 | 3.66e6 | 3.66e6
atms (antimeros) | 1 | 3.24e6 | 3.67e6 | 3.67e6
rib (ribbon) | 1 | 3.64e6 | 4.15e6 | 4.12e6
CG8100 | 1 | 3.51e6 | 4.04e6 | 3.92e6
EcR (Ecdysone receptor) | 1 | 3.61e6 | 4.17e6 | 4.02e6
EcR (Ecdysone receptor) | 2 | 3.51e6 | 4.14e6 | 3.81e6
